Laboratory results published in the M2OR odorant receptor database.
Substitutions are numbered along the chain they refer to. The list shows a part of the results, in another mix than the full data. The calls were merged from several studies; some rest on single wells. The list shows a part of the results. Some of the results follow.

Chains of the proteins cited; added tags and fusions are not shown. Chains listed by the source or under a name are the forms on record and can include a tag or linker.
OR5L1, as listed by the source: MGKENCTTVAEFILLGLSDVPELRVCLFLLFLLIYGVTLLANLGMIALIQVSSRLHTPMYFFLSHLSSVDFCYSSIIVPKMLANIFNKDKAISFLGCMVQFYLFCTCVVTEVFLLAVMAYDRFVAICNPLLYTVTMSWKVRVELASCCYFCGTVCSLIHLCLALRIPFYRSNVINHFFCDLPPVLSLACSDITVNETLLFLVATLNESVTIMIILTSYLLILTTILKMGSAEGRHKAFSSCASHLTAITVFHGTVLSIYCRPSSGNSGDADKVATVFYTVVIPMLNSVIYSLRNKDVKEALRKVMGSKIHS
OR5H1, as listed by the source: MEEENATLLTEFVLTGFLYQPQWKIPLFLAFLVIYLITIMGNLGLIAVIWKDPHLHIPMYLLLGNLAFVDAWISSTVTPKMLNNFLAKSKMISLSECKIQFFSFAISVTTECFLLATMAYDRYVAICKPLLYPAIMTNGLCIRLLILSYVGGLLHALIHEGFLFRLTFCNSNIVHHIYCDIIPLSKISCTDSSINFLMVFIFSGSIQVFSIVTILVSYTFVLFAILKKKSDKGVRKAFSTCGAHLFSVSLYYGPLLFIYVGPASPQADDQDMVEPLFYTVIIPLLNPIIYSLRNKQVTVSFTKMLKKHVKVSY

What was measured:
Details in all cases: stereoisomer not certain
OR5DD = test system: T1, OR5DD
T1 sequence (whole entry): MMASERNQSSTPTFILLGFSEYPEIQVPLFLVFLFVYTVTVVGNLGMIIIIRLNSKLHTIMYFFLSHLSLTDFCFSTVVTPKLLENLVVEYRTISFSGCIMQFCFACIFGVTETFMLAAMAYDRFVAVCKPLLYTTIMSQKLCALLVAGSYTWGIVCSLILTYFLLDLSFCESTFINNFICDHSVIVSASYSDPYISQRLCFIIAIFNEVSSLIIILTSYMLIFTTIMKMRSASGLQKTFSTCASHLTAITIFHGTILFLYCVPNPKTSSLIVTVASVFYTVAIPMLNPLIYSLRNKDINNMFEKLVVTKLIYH
In short: (§1)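 Each receptor–molecule pair is labelled responsive or non-responsive (inactive) according to whether the original authors judged the measured signal statistically different from baseline. The data were taken from the main text and supplementary material of published papers and checked for typos and inconsistencies. Assay methods differed by source, with transient luciferase assays in mammalian cell lines being common.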

OR5DE = test system: T2, OR5DE
T2 sequence (whole entry): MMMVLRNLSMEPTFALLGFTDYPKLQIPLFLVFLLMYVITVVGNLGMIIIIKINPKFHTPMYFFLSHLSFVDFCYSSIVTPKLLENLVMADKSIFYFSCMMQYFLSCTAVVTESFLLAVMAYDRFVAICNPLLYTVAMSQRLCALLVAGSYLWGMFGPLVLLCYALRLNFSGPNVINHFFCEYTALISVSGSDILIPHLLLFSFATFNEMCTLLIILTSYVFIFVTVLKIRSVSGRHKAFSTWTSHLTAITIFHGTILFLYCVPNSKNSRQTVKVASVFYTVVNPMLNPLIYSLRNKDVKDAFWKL
In short: as §1

OR5DG = test system: T3, OR5DG
T3 sequence (whole entry): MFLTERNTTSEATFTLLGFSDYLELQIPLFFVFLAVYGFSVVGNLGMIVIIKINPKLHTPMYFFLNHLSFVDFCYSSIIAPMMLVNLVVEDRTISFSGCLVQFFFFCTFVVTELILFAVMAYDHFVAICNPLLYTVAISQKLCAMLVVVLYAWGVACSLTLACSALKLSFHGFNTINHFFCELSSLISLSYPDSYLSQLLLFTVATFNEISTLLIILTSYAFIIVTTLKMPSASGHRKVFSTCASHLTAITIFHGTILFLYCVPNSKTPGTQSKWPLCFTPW
In short: as §1

OR5DI = test system: T4, OR5DI
T4 sequence (whole entry): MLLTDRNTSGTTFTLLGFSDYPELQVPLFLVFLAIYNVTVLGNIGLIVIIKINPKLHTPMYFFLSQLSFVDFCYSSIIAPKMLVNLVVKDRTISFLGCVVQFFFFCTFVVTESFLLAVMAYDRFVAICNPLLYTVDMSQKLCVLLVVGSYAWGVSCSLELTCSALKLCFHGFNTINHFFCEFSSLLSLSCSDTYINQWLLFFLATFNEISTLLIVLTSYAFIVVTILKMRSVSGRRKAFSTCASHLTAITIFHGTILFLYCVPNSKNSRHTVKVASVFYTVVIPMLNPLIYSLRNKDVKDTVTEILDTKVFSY
In short: as §1

OR5F1 = test system: T5, OR5F1
T5 sequence (whole entry): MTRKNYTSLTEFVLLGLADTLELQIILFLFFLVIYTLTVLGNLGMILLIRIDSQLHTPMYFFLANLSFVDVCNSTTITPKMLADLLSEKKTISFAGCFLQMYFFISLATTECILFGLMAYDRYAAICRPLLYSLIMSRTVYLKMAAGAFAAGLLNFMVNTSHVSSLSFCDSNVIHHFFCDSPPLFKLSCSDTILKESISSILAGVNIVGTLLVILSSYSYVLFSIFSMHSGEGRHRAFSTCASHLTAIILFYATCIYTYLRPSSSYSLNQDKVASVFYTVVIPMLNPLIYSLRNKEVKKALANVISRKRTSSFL
In short: as §1

OR5H1 (Homo sapiens) = target: T6, OR5H1 (Homo sapiens) (UniProt A6NKK0)
T6 sequence (whole entry): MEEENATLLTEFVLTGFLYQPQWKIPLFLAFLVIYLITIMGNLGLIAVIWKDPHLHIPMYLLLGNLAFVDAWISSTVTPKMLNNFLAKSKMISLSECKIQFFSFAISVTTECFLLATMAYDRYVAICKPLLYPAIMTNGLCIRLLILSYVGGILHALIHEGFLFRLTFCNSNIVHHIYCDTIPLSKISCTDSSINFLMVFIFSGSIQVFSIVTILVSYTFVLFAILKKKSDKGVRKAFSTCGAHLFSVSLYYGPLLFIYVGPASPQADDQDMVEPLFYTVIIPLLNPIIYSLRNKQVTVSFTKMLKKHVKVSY
In short: as §1

OR5H1 = test system: T7, OR5H1
T7 sequence (whole entry): T6 sequence (whole entry) with I153L, T181I
In short: as §1

OR5H2 [1] = test system: T8, OR5H2
T8 sequence (whole entry): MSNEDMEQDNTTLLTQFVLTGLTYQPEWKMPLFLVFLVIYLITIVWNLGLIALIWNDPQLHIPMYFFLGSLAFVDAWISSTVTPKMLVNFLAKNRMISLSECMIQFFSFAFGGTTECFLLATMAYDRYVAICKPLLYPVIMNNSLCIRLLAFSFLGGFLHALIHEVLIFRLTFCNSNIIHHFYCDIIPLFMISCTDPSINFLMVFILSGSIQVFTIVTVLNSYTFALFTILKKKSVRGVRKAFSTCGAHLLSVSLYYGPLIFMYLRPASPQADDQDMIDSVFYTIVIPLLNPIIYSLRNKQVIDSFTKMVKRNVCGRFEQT
In short: as §1

OR5H2 [2] = test system: T9, OR5H2; remark: listed apart in the source
T9 sequence (whole entry): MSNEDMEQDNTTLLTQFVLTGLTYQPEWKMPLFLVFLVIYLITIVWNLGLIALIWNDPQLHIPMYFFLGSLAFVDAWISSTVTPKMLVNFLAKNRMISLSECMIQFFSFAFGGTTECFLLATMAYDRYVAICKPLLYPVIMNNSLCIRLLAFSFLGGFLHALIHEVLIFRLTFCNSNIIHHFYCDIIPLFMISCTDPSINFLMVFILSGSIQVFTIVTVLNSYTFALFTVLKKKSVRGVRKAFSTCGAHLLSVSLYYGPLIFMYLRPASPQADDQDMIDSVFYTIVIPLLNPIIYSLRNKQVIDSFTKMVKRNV
In short: as §1

OR5H6 [3] = test system: T10, OR5H6
T10 sequence (whole entry): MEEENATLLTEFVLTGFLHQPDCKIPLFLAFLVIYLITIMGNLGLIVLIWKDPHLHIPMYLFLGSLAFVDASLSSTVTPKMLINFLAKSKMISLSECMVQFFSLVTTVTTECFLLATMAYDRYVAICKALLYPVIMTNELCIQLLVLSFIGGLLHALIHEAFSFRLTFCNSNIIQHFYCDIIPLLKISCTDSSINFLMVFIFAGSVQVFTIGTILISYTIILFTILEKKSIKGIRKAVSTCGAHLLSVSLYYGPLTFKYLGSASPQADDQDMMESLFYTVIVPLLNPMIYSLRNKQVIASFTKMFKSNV
In short: as §1

OR5H6 [4] = test system: T11, OR5H6; remark: listed apart in the source
T11 sequence (whole entry): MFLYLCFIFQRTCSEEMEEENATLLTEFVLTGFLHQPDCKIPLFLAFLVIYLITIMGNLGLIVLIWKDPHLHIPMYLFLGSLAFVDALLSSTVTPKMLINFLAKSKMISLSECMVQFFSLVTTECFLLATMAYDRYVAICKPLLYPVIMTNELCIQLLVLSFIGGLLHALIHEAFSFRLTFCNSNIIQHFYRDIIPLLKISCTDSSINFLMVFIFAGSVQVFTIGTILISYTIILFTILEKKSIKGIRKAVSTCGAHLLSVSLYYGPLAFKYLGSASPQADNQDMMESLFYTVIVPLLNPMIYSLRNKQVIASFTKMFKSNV
In short: as §1

OR5I1 (Homo sapiens) = target: T12, OR5I1 (Homo sapiens) (UniProt Q13606)
T12 sequence (whole entry): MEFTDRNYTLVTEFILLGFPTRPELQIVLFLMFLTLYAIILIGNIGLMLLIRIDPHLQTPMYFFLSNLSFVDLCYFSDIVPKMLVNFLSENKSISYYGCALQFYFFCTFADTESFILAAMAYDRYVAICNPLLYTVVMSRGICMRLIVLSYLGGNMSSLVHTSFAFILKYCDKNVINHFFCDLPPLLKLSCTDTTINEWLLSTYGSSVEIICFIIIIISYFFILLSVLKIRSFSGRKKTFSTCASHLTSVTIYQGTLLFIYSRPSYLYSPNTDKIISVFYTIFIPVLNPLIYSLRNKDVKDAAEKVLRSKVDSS
In short: as §1

OR5J2 (Homo sapiens) = target: T13, OR5J2 (Homo sapiens) (UniProt Q8NH18)
T13 sequence (whole entry): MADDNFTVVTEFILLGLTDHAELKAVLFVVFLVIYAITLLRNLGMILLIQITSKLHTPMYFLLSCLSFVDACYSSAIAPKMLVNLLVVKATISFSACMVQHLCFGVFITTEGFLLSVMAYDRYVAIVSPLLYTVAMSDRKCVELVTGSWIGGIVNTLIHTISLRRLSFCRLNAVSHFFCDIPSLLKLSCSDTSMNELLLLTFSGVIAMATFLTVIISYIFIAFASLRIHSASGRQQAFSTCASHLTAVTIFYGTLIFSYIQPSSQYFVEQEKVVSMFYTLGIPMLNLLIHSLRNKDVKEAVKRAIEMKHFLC
In short: as §1

OR5K1 (Homo sapiens) = target: T14, OR5K1 (Homo sapiens) (UniProt Q8NHB7)
T14 sequence (whole entry): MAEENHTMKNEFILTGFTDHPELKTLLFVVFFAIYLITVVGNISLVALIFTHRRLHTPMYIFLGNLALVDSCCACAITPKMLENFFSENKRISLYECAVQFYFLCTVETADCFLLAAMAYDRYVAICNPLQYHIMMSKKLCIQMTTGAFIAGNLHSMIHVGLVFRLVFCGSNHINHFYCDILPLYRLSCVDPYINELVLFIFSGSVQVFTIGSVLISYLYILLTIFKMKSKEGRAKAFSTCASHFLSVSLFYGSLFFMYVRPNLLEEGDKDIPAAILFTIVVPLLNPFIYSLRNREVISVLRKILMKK
In short: as §1

OR5K2 (Homo sapiens) = target: T15, OR5K2 (Homo sapiens) (UniProt Q8NHB8)
T15 sequence (whole entry): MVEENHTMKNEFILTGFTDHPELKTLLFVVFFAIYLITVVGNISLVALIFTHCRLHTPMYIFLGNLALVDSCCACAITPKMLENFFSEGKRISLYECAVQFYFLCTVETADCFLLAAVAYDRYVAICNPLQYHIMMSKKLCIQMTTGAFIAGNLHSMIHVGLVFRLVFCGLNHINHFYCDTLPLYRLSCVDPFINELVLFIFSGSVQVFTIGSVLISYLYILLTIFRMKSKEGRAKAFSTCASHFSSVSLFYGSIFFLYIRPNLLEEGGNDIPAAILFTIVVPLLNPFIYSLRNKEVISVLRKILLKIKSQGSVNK
In short: as §1

OR5K3 = test system: T16, OR5K3
T16 sequence (whole entry): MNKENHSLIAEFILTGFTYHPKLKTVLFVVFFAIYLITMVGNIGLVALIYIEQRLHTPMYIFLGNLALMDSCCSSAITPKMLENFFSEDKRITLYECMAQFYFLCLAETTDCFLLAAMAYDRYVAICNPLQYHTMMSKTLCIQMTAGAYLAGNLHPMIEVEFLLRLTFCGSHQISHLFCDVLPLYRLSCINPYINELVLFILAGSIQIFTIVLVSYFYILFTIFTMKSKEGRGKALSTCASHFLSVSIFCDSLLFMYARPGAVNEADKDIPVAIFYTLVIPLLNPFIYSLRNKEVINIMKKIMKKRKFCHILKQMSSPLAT
In short: as §1

OR5K4 = test system: T17, OR5K4
T17 sequence (whole entry): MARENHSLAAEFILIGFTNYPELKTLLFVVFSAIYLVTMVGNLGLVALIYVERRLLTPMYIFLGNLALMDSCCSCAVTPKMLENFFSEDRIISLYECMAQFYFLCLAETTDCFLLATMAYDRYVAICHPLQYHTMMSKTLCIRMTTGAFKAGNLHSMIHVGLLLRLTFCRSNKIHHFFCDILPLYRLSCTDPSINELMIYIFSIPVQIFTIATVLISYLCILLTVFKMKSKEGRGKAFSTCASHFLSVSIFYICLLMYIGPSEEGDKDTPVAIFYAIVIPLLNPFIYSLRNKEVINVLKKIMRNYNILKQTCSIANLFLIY
In short: as §1

OR5L1 (Homo sapiens) = target: T18, OR5L1 (Homo sapiens) (UniProt Q8NGL2)
T18 sequence (whole entry): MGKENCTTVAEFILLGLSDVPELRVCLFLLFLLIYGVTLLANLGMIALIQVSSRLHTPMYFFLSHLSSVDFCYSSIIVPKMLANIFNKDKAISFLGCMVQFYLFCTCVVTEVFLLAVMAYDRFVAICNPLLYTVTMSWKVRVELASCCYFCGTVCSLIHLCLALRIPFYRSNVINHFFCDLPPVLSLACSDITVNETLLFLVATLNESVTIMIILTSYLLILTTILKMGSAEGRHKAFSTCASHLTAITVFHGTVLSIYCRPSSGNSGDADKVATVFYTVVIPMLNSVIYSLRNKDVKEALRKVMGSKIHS
In short: as §1

OR5L1 = test system: T19, OR5L1
T19 sequence (whole entry): T18 sequence (whole entry) with T240S
In short: as §1

OR5M11 (Homo sapiens) = target: T20, OR5M11 (Homo sapiens) (UniProt Q96RB7)
T20 sequence (whole entry): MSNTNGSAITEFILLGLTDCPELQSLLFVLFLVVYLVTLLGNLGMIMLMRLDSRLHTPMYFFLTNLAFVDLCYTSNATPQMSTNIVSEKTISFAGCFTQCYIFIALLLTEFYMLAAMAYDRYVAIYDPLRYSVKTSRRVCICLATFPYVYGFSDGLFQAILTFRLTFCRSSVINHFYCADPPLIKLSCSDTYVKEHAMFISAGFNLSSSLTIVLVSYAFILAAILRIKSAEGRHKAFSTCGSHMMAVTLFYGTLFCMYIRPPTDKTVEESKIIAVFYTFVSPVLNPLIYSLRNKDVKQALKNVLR
In short: as §1

Measured: odorant receptor agonist call;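 note: active if original authors judged signal statistically different from baseline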

CCCCOC(C)=O
inactive: all assays above
